{
  "source": "PubChem BioAssay AID624291",
  "about": "(National Center for Advancing Translational Sciences (NCATS), 2012)",
  "note": "In all, about 350,000 compounds went through this assay and about 220 (0.063%) were called active. Inconclusive means that the source gave no clear call. Such entries were picked first, then a sample of the others. Calls come from the whole dose curve; as a rule, active = well fitted activation curve with a large enough effect; inconclusive = small, poorly fitted or top-dose-only effect; inactive = no such curve, though single readings can be large or run the other way. A potency beside an inconclusive call is a rough fit, not a confirmed value. Potency is the fitted concentration of half-maximal effect.",
  "data": [
    {"assay": "qHTS for Activators of Integrin-Mediated Alleviation for Muscular Dystrophy; note: nearly all actives have a fitted effect of over 60% in size;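 for activation: 100% = response of the positive control SU9516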", "details": "alpha7betagal myoblasts, beta-gal FDG fluorescence, 48 h; activation: at 38.3 µM (top of the series)", "outline": "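Alpha7betagal+/- myoblasts (passage 13) were plated 16-24 hr, then exposed to compounds (1:260 dilution of DMSO stock) for 48 hours at 37C. After MPER lysis, β-galactosidase reporter activity was read as FDG fluorescence (ex 480/em 540) after 30 minutes.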", "values": [
      {"smiles": "O=C(Oc1ccc(C(=S)N2CCOCC2)cc1)c1ccc(F)cc1", "Potency": "inconclusive: 0.501 µM [activator, full curve, poor fit]"},
      {"smiles": "OC1(c2ccc(F)cc2)CN(c2ccccc2)C2=[N+]1CCS2", "note": "(stereo unspecified)", "Potency": "inconclusive: 10 µM [activator, partial curve, poor fit]"},
      {"smiles": "CN(C)S(=O)(=O)c1cc(C(=O)NCc2ccccc2)c(Cl)cc1Cl", "Potency": "inconclusive: 3.16 µM [activator, partial curve, poor fit]"},
      {"smiles": "N#Cc1c(N)nc(SCC(=O)C23CC4CC(CC(C4)C2)C3)c(C#N)c1-c1ccc(Cl)cc1", "Potency": "inactive"},
      {"smiles": "CCc1ccc(-c2cc(C(F)(F)F)n3nc(C(=O)Nc4c(C)nn(Cc5ccccc5C)c4C)cc3n2)s1", "Potency": "inactive"},
      {"smiles": "CCOC(=O)C1=C(C)C2C3C(=O)N(c4cc(C)ccc4C)C(=O)C3C1(C)C1C(=O)N(c3cc(C)ccc3C)C(=O)C21", "note": "(stereo unspecified)", "Potency": "inconclusive: 7.08 µM [activator, partial curve, poor fit]"},
      {"smiles": "Cc1nnc(N2CCCC(C(=O)NCc3ccccc3F)C2)c2nn(-c3ccccc3)c(C)c12", "note": "(stereo unspecified)", "Potency": "inconclusive: 3.16 µM [activator, single point]"},
      {"smiles": "c1ccc(Oc2cccc(Oc3ccccc3)n2)cc1", "Potency": "inconclusive: 22.4 µM [activator, partial curve, poor fit]"},
      {"smiles": "CC1CCN(CCc2nc3cc(NC(=O)NC4CCCCC4)ccc3n2C)CC1", "activation": "inactive: -26.3% [at 7.66 µM]"},
      {"smiles": "S=C(NCc1ccncc1)Nc1ccccc1", "Potency": "inconclusive: 5.01 µM [activator, single point]"},
      {"smiles": "O=C(CN1CCCc2ccccc21)NC(=O)NCc1ccccc1", "Potency": "inconclusive: 2.82 µM [activator, single point]"},
      {"smiles": "O=C(c1ccccc1)N1CCN(C(=O)c2ccccc2)c2ccccc21", "activation": "inconclusive: -49.4% [activator]"},
      {"smiles": "Cc1noc(/C=C/c2cccnc2)c1[N+](=O)[O-]", "activation": "inconclusive: -65.7% [activator]"},
      {"smiles": "COc1cccc(N2CC(C(=O)Nc3nnc(SCC(=O)c4ccccc4)s3)CC2=O)c1", "note": "(stereo unspecified)", "Potency": "inconclusive: 2.82 µM [activator, single point]"},
      {"smiles": "Cc1ccccc1C(=O)N/N=C/c1ccc([N+](=O)[O-])s1", "Potency": "inactive"},
      {"smiles": "CCC(=O)Nc1sc2c(c1C#N)CCC2", "Potency": "inconclusive: 1.58 µM [activator, partial curve, poor fit]"},
      {"smiles": "N#Cc1ccc(OCC(=O)NC(=O)NC2CCS(=O)(=O)C2)cc1", "note": "(stereo unspecified)", "Potency": "inconclusive: 28.2 µM [activator, single point]"},
      {"smiles": "COCCNC(=O)C(c1ccc(Cl)cc1)N(CCOC)C(=O)CCC(=O)Nc1nccs1", "note": "(stereo unspecified)", "Potency": "inconclusive: 4.47 µM [activator, single point]"},
      {"smiles": "CCOc1ccccc1NC(=O)c1cccc(NC(=O)C2CCCC2)c1", "Potency": "inconclusive: 4.47 µM [activator, single point]"},
      {"smiles": "N#Cc1ccccc1NC(=O)c1cc(=O)c2ccccc2o1", "Potency": "inconclusive: 2.82 µM [activator, partial curve, poor fit]"},
      {"smiles": "O=C(O)c1ccccc1-c1ccccc1C(=O)Nc1ccc2c(c1)[nH]c(=O)c1ccccc12", "Potency": "inconclusive: 28.2 µM [activator, single point]"},
      {"smiles": "COc1ccc(C2=NCCn3c2c2ccc(C(F)(F)F)cc2[n+]3[O-])cc1", "Potency": "inactive"},
      {"smiles": "COc1ccc(CC(=O)NCc2ccc(-n3cccc3)cc2)cc1OC", "Potency": "inactive"},
      {"smiles": "Cc1ccc(NC(=S)N2CCCC2)cc1Cl", "Potency": "inconclusive: 2.82 µM [activator, single point]"},
      {"smiles": "Cc1ccc(S(=O)(=O)SCCCSS(=O)(=O)c2ccc(C)cc2)cc1", "Potency": "inactive"},
      {"smiles": "COc1cc(/C=N/Nc2nc(Nc3ccc(C)cc3)nc(-n3nc(C)cc3C)n2)cc(OC)c1OC", "Potency": "inconclusive: 2.24 µM [activator, partial curve, poor fit]"},
      {"smiles": "O=C(c1ccc(Cl)cc1)C1CCN(C(=O)c2ccccc2F)CC1", "Potency": "inconclusive: 10 µM [activator, partial curve]"},
      {"smiles": "Cc1c(C#N)c(NC(=O)c2cccc(Cl)c2)n(Cc2ccccc2)c1C", "Potency": "inconclusive: 28.2 µM [activator, single point]"},
      {"smiles": "CNCc1nc2ccccc2[nH]1", "Potency": "inconclusive: 0.562 µM [activator, full curve, poor fit]"},
      {"smiles": "O=C(CSc1nnc(-c2cccnc2)s1)Nc1cccc(C(=O)O)c1", "Potency": "inconclusive: 20 µM [activator, single point]"},
      {"smiles": "COc1ccc(S(=O)(=O)N2CCCC(C(=O)N3CCOCC3)C2)cc1Cl", "note": "(stereo unspecified)", "Potency": "inconclusive: 28.2 µM [activator, single point]"},
      {"smiles": "Cc1cc(N2CCN(S(=O)(=O)c3ccc(Br)cc3)CC2)n2ncnc2n1", "Potency": "inactive"},
      {"smiles": "Cc1nn(CCC#N)c(NC(=O)c2ccc(Cl)cc2Cl)c1P(=O)(Nc1ccc([N+](=O)[O-])cc1)N1CCOCC1", "note": "(stereo unspecified)", "Potency": "inactive"},
      {"smiles": "CCCCNC(=O)C1CCCN(S(=O)(=O)CC)C1", "note": "(stereo unspecified)", "Potency": "inconclusive: 28.2 µM [activator, single point]"},
      {"smiles": "O=C(CCCc1c[nH]c2ccccc12)NCc1ccccc1F", "Potency": "inconclusive: 35.5 µM [activator, partial curve, poor fit]"},
      {"smiles": "CN(C)S(=O)(=O)c1ccc(NC(=O)CSc2nc3ccccc3n2-c2ccccc2)cc1", "Potency": "inconclusive: 31.6 µM [activator, partial curve, poor fit]"},
      {"smiles": "COC(=O)c1sccc1NC(=O)C1CCCCC1C(=O)O", "note": "(stereo unspecified)", "Potency": "inconclusive: 5.01 µM [activator, single point]"},
      {"smiles": "CCOc1cc(-c2noc(CCC(=O)NCC3CCCO3)n2)ccc1OC", "note": "(stereo unspecified)", "Potency": "inconclusive: 5.01 µM [activator, single point]"},
      {"smiles": "Cc1ccc(S(=O)(=O)N2CCN(S(=O)(=O)N3CCCCCC3)CC2)cc1", "Potency": "inconclusive: 14.1 µM [activator, single point]"},
      {"smiles": "Cc1ccc(C2=NN(CC(=O)NCCN(C)C)C(=O)CC2)cc1", "Potency": "inconclusive: 20 µM [activator, single point]"},
      {"smiles": "NC(Cc1ccc(O)c([N+](=O)[O-])c1)C(=O)O", "note": "(stereo unspecified)", "Potency": "inconclusive: 3.55 µM [activator, single point]"}
    ]}
  ]
}
